Screening data, single-dose tests

By UniProt entry, the sequences of proteins in these tests, tags left out. Residues count along the entry.
UniProt I6X8D2, whole entry: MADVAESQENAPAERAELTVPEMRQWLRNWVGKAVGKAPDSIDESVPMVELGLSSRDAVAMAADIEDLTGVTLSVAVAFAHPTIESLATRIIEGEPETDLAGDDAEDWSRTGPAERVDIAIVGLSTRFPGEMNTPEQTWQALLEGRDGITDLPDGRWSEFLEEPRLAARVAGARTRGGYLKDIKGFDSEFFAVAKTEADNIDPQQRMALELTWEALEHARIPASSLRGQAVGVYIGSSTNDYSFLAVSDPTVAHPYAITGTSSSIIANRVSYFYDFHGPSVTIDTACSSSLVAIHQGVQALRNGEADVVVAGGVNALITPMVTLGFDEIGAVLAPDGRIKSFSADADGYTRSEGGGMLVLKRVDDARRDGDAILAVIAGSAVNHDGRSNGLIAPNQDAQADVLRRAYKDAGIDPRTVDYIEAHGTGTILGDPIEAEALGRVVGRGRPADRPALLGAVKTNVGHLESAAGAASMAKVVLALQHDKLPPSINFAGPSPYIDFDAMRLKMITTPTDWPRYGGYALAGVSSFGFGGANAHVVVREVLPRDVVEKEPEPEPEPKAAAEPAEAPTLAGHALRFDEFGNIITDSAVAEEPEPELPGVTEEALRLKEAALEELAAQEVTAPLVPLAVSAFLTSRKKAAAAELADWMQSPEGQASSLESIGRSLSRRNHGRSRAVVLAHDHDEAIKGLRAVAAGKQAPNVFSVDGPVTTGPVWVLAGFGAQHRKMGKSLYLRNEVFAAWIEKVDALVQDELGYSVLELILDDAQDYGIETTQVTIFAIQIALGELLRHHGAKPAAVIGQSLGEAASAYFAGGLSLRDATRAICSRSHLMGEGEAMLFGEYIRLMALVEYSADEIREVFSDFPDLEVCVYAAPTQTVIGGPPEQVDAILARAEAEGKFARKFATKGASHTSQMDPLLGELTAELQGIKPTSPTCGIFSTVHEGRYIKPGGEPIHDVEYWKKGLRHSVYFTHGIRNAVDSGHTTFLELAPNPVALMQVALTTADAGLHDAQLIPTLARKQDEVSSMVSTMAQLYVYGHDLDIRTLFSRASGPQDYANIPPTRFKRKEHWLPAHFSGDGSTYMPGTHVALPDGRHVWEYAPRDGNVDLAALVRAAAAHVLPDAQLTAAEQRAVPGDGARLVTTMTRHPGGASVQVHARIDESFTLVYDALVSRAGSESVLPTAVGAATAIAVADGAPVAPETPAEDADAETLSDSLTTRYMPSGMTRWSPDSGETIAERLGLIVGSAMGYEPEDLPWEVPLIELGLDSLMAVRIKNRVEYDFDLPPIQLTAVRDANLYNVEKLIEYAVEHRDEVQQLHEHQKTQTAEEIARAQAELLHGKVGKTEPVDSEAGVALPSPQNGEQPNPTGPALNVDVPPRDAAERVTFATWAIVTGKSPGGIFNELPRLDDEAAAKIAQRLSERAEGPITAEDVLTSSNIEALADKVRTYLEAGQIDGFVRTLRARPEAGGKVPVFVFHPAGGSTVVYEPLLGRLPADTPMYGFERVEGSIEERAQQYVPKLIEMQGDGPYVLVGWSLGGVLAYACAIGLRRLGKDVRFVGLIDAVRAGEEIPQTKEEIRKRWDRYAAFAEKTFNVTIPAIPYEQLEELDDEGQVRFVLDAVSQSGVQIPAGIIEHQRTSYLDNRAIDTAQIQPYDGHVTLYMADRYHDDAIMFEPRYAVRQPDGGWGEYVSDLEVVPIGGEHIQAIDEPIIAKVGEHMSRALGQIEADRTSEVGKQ
UniProt Q8IDJ8, 1-583: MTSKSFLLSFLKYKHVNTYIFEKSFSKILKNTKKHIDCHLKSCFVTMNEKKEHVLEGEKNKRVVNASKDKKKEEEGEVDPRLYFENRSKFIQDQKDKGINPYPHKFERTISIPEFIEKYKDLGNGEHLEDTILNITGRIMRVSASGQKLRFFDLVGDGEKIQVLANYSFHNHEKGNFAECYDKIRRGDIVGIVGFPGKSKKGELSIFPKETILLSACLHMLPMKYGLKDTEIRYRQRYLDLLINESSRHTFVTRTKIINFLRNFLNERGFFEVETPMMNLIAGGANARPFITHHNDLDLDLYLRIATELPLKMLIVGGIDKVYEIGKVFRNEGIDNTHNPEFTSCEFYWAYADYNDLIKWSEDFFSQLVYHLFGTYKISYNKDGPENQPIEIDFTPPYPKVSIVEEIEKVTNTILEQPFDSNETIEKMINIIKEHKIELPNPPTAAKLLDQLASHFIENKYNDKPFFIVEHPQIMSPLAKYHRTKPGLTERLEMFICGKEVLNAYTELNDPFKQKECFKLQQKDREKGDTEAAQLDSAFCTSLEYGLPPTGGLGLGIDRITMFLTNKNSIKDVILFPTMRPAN
UniProt A4I591, 1-473: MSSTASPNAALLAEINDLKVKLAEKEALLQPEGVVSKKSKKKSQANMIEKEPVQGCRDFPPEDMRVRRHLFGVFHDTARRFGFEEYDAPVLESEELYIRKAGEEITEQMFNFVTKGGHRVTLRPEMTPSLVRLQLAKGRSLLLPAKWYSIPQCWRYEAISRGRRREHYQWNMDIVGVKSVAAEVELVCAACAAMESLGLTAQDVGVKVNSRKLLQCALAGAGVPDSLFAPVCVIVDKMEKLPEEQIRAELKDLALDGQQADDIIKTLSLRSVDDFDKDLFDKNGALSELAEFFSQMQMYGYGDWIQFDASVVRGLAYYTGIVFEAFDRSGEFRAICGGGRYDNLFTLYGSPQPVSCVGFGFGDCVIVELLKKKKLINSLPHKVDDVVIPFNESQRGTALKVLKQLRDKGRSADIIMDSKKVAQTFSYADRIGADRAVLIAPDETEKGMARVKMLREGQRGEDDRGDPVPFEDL
UniProt P9WFT3, whole entry: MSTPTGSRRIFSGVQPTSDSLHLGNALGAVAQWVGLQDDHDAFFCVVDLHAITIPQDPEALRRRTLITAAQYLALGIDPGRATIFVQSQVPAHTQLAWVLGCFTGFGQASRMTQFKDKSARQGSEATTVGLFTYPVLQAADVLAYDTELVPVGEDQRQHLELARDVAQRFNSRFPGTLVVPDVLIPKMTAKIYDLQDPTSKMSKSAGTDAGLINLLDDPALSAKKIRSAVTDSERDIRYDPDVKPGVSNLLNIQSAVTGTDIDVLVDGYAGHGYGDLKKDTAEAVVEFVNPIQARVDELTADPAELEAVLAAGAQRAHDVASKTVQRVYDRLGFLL

The filed quantity is “Percent Effect” (%).
The controls that fix the scale are not given in the record; negative values are as filed.
The compounds are a random part of those screened.
A dash means the value is not listed here; it may have been measured.

Pks13 thioesterase: 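Polyketide synthase Pks13, Mycobacterium tuberculosis (UniProt I6X8D2). Enzyme assay of the thioesterase domain of polyketide synthase 13; the read-out is not stated. Tested at 30 µM. The record gives no direction; the compounds picked for IC50 retests had high values, so higher reads as stronger inhibition. About 67,000 compounds were tested under these conditions; 0.46% (about 300) showed 50% or more at least once.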
PfKRS1: 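Enzyme assay of the cytosolic lysyl-tRNA synthetase in 384-well plates, read by luminescence. Target: Lysine-tRNA ligase, Plasmodium falciparum 3D7 (UniProt Q8IDJ8). Tested at 30 µM. Direction is inferred from only a few compounds that gave an IC50; most scored high, so higher reads as stronger inhibition. About 69,000 compounds were tested under these conditions; 0.071% (about 49) showed 50% or more at least once.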
LiHisRS: 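Enzyme assay of histidyl-tRNA synthetase; the read-out is not stated. Target: Histidine-tRNA ligase, Leishmania infantum (UniProt A4I591). Compounds at 30 µM. Higher reads as stronger inhibition (inferred: compounds with an IC50 in retests scored well above the rest). The assay is labelled LdHisRS but filed under L. infantum. Size under these conditions: about 69,000 compounds, about 410 of them at 50% or above in at least one test.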
MtTrpRS: 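Enzyme assay of tryptophanyl-tRNA synthetase; the read-out is not stated. Target: Tryptophan-tRNA ligase, Mycobacterium tuberculosis (UniProt P9WFT3). Tested at 10 µM. Higher most likely means stronger inhibition; the record gives no direction and few retests gave an IC50. Of about 65,000 compounds tested this way, about 64 (0.098%) reached 50% or more in at least one test.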

compound | Pks13 thioesterase | PfKRS1 | LiHisRS | MtTrpRS
CN(C)Cc1cc(=O)n2c(n1)CN(S(=O)(=O)C1CC1)CCC2 | 6.436 | 4.07 | 9.615 | -
Cc1ccc(N2CCN(Cc3ccccc3)C3(CCNCC3)C2=O)cn1 | 16.21 | 1.553 | 20.69 | -4.423
CSCc1ccc(CNCCCN2CCOCC2)o1 | -32.07 | -1.302 | 11.67 | -3.981
OC1(CNCc2cnc(N3CCOCC3)nc2)CCCCC1 | -12.44 | 7.007 | 8.85 | -1.434
Cn1cc(C[C@H]2[C@H](N3CCOCC3)CCN2c2ncc(F)cn2)cn1 | 56.01 | 3.971 | 7.563 | 0.3666
O=C(CN(Cc1ccccc1)CC1CCOCC1)NC(=O)NC1CC1 | -13.42 | -2.55 | 3.81 | -0.7401
O=C(c1cc2c(s1)CCC2)N1CCC(c2ccncc2)CC1 | -13.01 | 3.204 | 15.6 | 1.952
O=C(NCc1nnc2n1CCC2)N(Cc1ccc(F)cc1)C1CC1 | 7.831 | 3.866 | 12.33 | -1.852
O=C(CCC1CCCC1)NCCn1nc(C2CCNC2)c2nccnc21 (centres undefined) | -38.74 | -2.894 | 11.11 | -1.421
Cc1ccc2c(c1)C1(CCN(C(N)=O)CC1)CN2C(=O)N(C)C | -11.68 | 1.045 | 17.65 | -5.35
CN(C)C(=O)CNC(=O)c1ccc2c(-c3nccs3)noc2c1 | -4.953 | -1.246 | 2 | -13.72
O=C(Nc1ccnc2ccnn12)c1ccc(N2CCC(O)CC2)cc1 | -0.6058 | 0.4459 | 28.57 | -6.914
COCCN1CCCc2sc(C(=O)N3CCCN(C)CC3)nc21 | 6.647 | 2.453 | 10.53 | 11.21
CC(Cc1cccc(F)c1)C(=O)NS(=O)(=O)c1ccc(F)cc1 (centres undefined) | -9.743 | 0.9239 | -9.804 | -5.674
Cc1cc(N2CCOCC(Cc3ccc4[nH]ccc4c3)C2)ncn1 (centres undefined) | -1.39 | 1.565 | 8.966 | -2.98
CC(=O)N1CCC(c2ccnc(Nc3cnccn3)n2)C1 (centres undefined) | -17.17 | 8.067 | 9.489 | -1.938
O=C(CN1CCCCC1Cn1cncn1)NCCOc1ccccc1 (centres undefined) | -11.18 | -1.101 | 16.96 | -3.742
Cc1ccc(CNC(=O)c2ccc(S(=O)(=O)N3C[C@@H]4C[C@H]3CN4)cc2)o1 | -24.25 | 3.624 | 22.86 | -0.3882
Cc1occc1C(=O)N1CCC2(CCN(C(=O)c3cccnc3)C2)CC1 | 6.742 | 3.197 | 6.364 | -
CCN(CC)C(=O)CNC(=O)c1cnc(-c2ccccc2)nc1 | -38.62 | 2.859 | 18.03 | -1.143
O=C(NCc1ccccc1CN1CCCC1=O)Nc1nccs1 | -4.861 | 4.425 | 18.42 | 3.838
CSc1nccc(N2CCC3(CCCN(CCc4ccccc4)C3)C2)n1 (centres undefined) | -10.45 | 7.145 | 31.86 | -1.905
CC(C)(C)OC(=O)NCC1CCN(C(=O)c2ccccc2O)C1 (centres undefined) | -5.222 | 3.132 | 6.25 | -1.125
CCc1nc2n(n1)CC(Nc1ccnc(-c3ccccc3)n1)CC2 (centres undefined) | -8.09 | 5.355 | 19.64 | 0.9332
OCCN(Cc1ccncc1)CC1(c2ccc(Cl)cc2)CCCC1 | 40.15 | 1.76 | 21.28 | -2.75
CS(=O)(=O)NCc1nnc2n1CCN(Cc1ccncc1)C2 | -47.95 | -3.448 | -4 | 9.851
Cc1cc(NC(=O)C(C)NCCn2cccn2)no1 (centres undefined) | 9.585 | 3.834 | 11.76 | -0.5757
Cn1cc(C(=O)NCc2cn3c(n2)CN(Cc2ccncc2)CC3)cn1 | 1.717 | 6.487 | 19.75 | -2.057
Cc1ccc(-c2noc(CN3CCOC(CN(C)C)C3)n2)cc1F (centres undefined) | -15.52 | 1.545 | 0 | -1.652
CN1CCC(c2cccc(NCc3ccncc3)n2)CC1 | -0.8752 | 1.507 | 5.714 | 1.48
CN(Cc1cccs1)c1nc2c(cnn2C(C)(C)C)c(=O)[nH]1 | -10.75 | 8.688 | 22.81 | -6.659
CCN(c1ccsc1C(=O)N1CCCCC1)S(=O)(=O)c1ccccc1 | 2.039 | -0.1634 | 14.63 | -1.485
O=S(=O)(NCC1CCCN(Cc2ccccc2F)C1)C1CC1 (centres undefined) | -29.41 | 5.7 | 11.39 | -2.33
CCOC(=O)c1nc(COc2c(C)occc2=O)no1 | -1.732 | 4.637 | 13.04 | -0.06325
O=C1COc2ccc(S(=O)(=O)NCCC3=CCCCC3)cc2N1 | -30.64 | 4.389 | 14.13 | 1.711
Cc1ccccc1S(=O)(=O)N[C@@H]1CC[C@@H](N2CCNC(=O)C2)[C@@H]1O | 52.95 | -0.6216 | 9.79 | 3.068
CN1CC2(CCCN(Cc3cccc(Oc4ccccc4)c3)C2)OC1=O (centres undefined) | -22.3 | 3.801 | 22.34 | 1.419
Cc1noc(C)c1CN(C)C(=O)NC1CCC(O)CC1 (centres undefined) | -17.26 | 0.7429 | 13.89 | -0.2674
CCc1ccc(CN(C)C(=O)C(c2ccccc2F)N(C)C)nc1 (centres undefined) | -15.26 | -0.174 | 11.48 | 5.958
CC(C)C(C)N1Cc2cccc(NCC(=O)N(C)C)c2C1 (centres undefined) | -6.554 | 6.206 | 6.806 | -1.445
Cc1cccc(C(=O)N2CCCN(CCCSCC#N)CC2)c1 | -7.225 | -2.329 | 9.574 | 1.472
COCCCC(=O)NS(=O)(=O)c1ccc2c(c1)OCCCO2 | -3.772 | 7.157 | 4.545 | 1.657
CCc1ccc(OCC(O)CN2CCC(O)CC2)cc1 (centres undefined) | -13.4 | 2.813 | -5.333 | -3.518
CN1[C@@H](CCC(=O)NCc2ccc(F)cc2)CNC(=O)[C@H]2NCC[C@H]21 | 10.73 | 5.345 | 13.89 | -0.9789
Cc1nn(C)c(N(C)C)c1CNCC(O)c1ccccc1F (centres undefined) | -21.43 | 1.65 | 17.39 | 3.408
Cc1nc(C)n(C2CCCN(C(=O)c3cnc[nH]3)C2)n1 (centres undefined) | -4.635 | 8.405 | 2.381 | 0.8607
CN1CC2(CCN(Cc3cccnc3)CC2)c2cc(F)ccc21 | -19.3 | 6.891 | 32 | -5.307
COCc1ccc(C(=O)N2CCC(c3cc4nccnc4[nH]3)CC2)cc1 | 18.15 | -0.1975 | 6.207 | -6.118
Cc1cccc(N2CCN(C(=O)CC3(O)CCCC3)C(C)C2)n1 (centres undefined) | -4.824 | 3.881 | 13.16 | 2.658
CCc1noc(CN2CCCC2C(=O)OCc2ccccc2)n1 (centres undefined) | -12.14 | -5.548 | 0 | -3.592
NC(=O)CN(C(=O)Cc1cccc(C(F)(F)F)c1)C1CCCC1 | 5.043 | 4.903 | 16.67 | 0.7261
O=C(O)[C@]12CCCN(C3CCOC3)C[C@H]1CN(c1ncccn1)C2 (some centres undefined) | 1.327 | 4.971 | 8.108 | -
N#Cc1cccc(CN2CCCC2c2ccc[nH]2)c1 (centres undefined) | -11.25 | 0.6078 | 18.28 | -2.863
CC(C)(C)c1ncc(C(=O)NCCNC(=O)c2ccco2)s1 | -9.802 | 3.87 | 8.036 | 10.93
Cc1c(NC(=O)C(C)N(C)C)c(=O)n(-c2ccccc2)n1C (centres undefined) | -1.993 | 4.794 | 11.88 | -

The last 4 entries again:

| compound | Pks13 thioesterase | PfKRS1 | LiHisRS | MtTrpRS |
|---|---|---|---|---|
| `O=C(O)[C@]12CCCN(C3CCOC3)C[C@H]1CN(c1ncccn1)C2` (some centres undefined) | 1.327 | 4.971 | 8.108 | - |
| `N#Cc1cccc(CN2CCCC2c2ccc[nH]2)c1` (centres undefined) | -11.25 | 0.6078 | 18.28 | -2.863 |
| `CC(C)(C)c1ncc(C(=O)NCCNC(=O)c2ccco2)s1` | -9.802 | 3.87 | 8.036 | 10.93 |
| `Cc1c(NC(=O)C(C)N(C)C)c(=O)n(-c2ccccc2)n1C` (centres undefined) | -1.993 | 4.794 | 11.88 | - |

Source: ChEMBL document CHEMBL3988442, “University of Dundee, Small-Polar-MMV Screening Library” (2021).